# Test results taken from PubChem BioAssay AID1259415 (National Center for Advancing Translational Sciences (NCATS), 2018).
# The campaign covered roughly 410,000 compounds. About 18,000 (4.4%) were called active. The inconclusive results got no clear call from the source; some entries with a clear call stand among them for comparison. Rule as the data show it: active = activity change below about -60%; inconclusive = no clear call, values can overlap the other calls; inactive = above about -39%.
# Assay: qHTS Assay for inhibitors of the human cytomegalovirus (HCMV)
# Details: HFF cells, HCMV-luciferase reporter, 72 h; at 57.5 µM; active compounds read low
# In short: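 Human foreskin fibroblasts infected with luciferase-reporter HCMV at MOI 1 PFU/cell, compounds at two doses. Luciferase measured 72 h post infection; normalized to buffer-only basal and Salinomycin (10uM) controls.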
# % is scaled to controls: 0 for no effect and ±100 for the full control effect.
row,Compound,"activity change, negative = inhibition"
1,COc1ccc(/C=N/NC(=O)c2nc(-c3ccccc3)n(-c3ccccc3)n2)c(O)c1,inconclusive: -47%
2,COc1cccc(OCC(=O)Nc2ccccc2-c2ccccc2)c1,inconclusive: -49.3%
3,O=C(Cn1ncc2c3ccccc3n(Cc3ccc(F)cc3)c2c1=O)NCCCN1CCCCC1,inactive: -6.01%
4,CCc1ncc(C(O)c2ccc(Cl)cc2)n1Cc1ccccc1 (stereo not given),inconclusive: -51.1%
5,COc1ccc(NC(=O)c2cc(-c3cc(F)ccc3OC(C)C)n[nH]2)c(C)c1,inconclusive: -42.1%
6,COc1cc(-c2nc3ccc(Cl)cn3c2Nc2ccc3c(c2)OCCO3)ccc1O,inactive: 27.4%
7,Cn1c(=N)c(S(=O)(=O)c2ccccc2)cc2c(=O)n3ccccc3nc21,inactive: -39.2%
8,COc1ccccc1N1CCN(CC(=O)N2N=CCC2c2ccccc2)CC1 (stereo not given),inconclusive: -48.4%
9,Cc1ccccc1OCC(=O)OCc1cc(=O)n2nc(-c3cccs3)sc2n1,inactive: 21.3%
10,O=C(Cn1c(C(=O)N2CCc3ccccc3C2)cc2sccc21)c1ccccc1,inactive: -11.6%
11,CCOc1ccccc1NC(=O)c1c(NC(=O)Cc2ccc(OC)cc2)sc2c1CCC2,inactive: 23%
12,COc1ccccc1N1CCN(C2CCCN(C(=O)CCC(C)=O)C2)CC1 (stereo not given),inactive: 22%
13,Cc1cnc(C(=O)OCC(=O)c2ccc(F)cc2)cn1,inconclusive: -53%
14,CC(=O)N(C)c1ccc(NC(=S)Nc2cccc3ccccc23)cc1,active: -71.3%
15,CC1=C(C(=O)OC2CCCC2)C(c2ccccc2C(F)(F)F)CC(=O)N1 (stereo not given),inconclusive: -41.2%
16,COc1cccc(NC(=O)Cn2c(=O)n(-c3ccccc3)c(=O)c3c2c2cc(OC)ccc2n3C)c1,inactive: 6.9%
17,CC1CCCN(c2ncnc3c2cnn3-c2ccc(Cl)cc2)C1 (stereo not given),active: -98.2%
18,CCOc1ccc(N(CC(=O)NCCc2ccc(Cl)cc2)S(=O)(=O)c2c(C)[nH]c(=O)[nH]c2=O)cc1,inconclusive: -46.7%
19,N#C/C(=C\c1ccc(N2CCOCC2)o1)C(=O)N1CCOCC1,inconclusive: -41.1%
20,COc1cccc(NC(=O)N2CCc3ccccc3C2)c1,inactive: 160%
21,CCCc1cc(=O)[nH]c(SCC(=O)Nc2nonc2N)n1,inconclusive: -40.4%
22,Cc1ccc(NS(=O)(=O)c2cccc3cccnc23)cc1Cl,active: -93.8%
23,CCCCNC(=O)c1cccc(S(=O)(=O)N2CC3(C)CC2CC(C)(C)C3)c1 (stereo not given),inconclusive: -42.5%
24,COc1ccc(C(=O)/C=C/Nc2ccc([N+](=O)[O-])cc2)cc1,inconclusive: -41.9%
25,Cn1c(SCc2ccccc2)nc2ccsc2c1=O,inconclusive: -59.1%
26,COc1ccc(/C=N/n2c(N)c(S(=O)(=O)c3cccs3)c3nc4ccccc4nc32)cc1OC,active: -88%
27,COc1ccc(S(=O)(=O)N(CC(=O)Nc2ccc3c(c2)OCO3)c2ccccc2OC)cc1,inconclusive: -46.8%
28,O=S(=O)(c1ccccc1)N1N=C(c2cccs2)CC1c1ccc(F)cc1 (stereo not given),inconclusive: -52.6%

# 2 entries from above, tab-delimited.
row	Compound	activity change, negative = inhibition
22	Cc1ccc(NS(=O)(=O)c2cccc3cccnc23)cc1Cl	active: -93.8%
23	CCCCNC(=O)c1cccc(S(=O)(=O)N2CC3(C)CC2CC(C)(C)C3)c1 (stereo not given)	inconclusive: -42.5%

# (cont.)

row,Compound,"activity change, negative = inhibition"
1,CCOc1ccccc1NC(=O)Cn1c(=O)n(C(C)C)c(=O)c2oc3ccccc3c21,inconclusive: -41.4%
2,O=C(Nc1ccc(N2CCN(C(=O)c3cccs3)CC2)cc1)c1ccc(F)cc1,inactive: 34.2%
3,COc1ccc(OC)c(C2CC(c3ccc(NS(C)(=O)=O)cc3)=NN2C(=O)c2ccccc2)c1 (stereo not given),inconclusive: -41.7%
4,Cc1cc(=O)oc(C)c1C(=O)N[C@@H]1CCCCNC1=O,inconclusive: -45.5%
5,Cc1c(C(=O)NC2CC2)oc2ccc(S(=O)(=O)N3CCCCCC3)cc12,inconclusive: -48.2%
6,Cn1c(=O)c2c(SCC(=O)N3CCc4ccccc43)nc(-c3ccc(Cl)cc3)nc2n(C)c1=O,inactive: 17.9%
7,CCCN(CCC)S(=O)(=O)c1ccc(C(=O)Nc2cc3oc4ccccc4c3cc2OC)cc1,inconclusive: -58%
8,O=C(Nc1ccccc1-c1nc2ccccc2s1)c1ccc(Br)o1,inconclusive: -50.5%
9,S=C(Nc1ccccc1)Nc1ccc(Br)cc1,inconclusive: -43%
10,O=C(CCl)NCCCCCCCCCNC(=O)CCl,active: -100%
11,Nc1nc(Cl)nc2c1ncn2[C@@H]1O[C@H](CO)[C@@H](O)[C@H]1O,inactive: -24.6%
12,CN(Cc1ccc(Cl)cc1Cl)C(=O)c1cccc(S(=O)(=O)N2CCN(c3ccccc3)CC2)c1,inconclusive: -57.3%
13,COc1ccc(N(C(=O)c2snc(C(N)=O)c2N)C(C(=O)NC2CCCC2)c2ccc(C)o2)c(OC)c1 (stereo not given),inconclusive: -53.9%
14,O=C(CCc1ccc(S(=O)(=O)N2CCOCC2)cc1)N/N=C/c1ccc(O)c(O)c1O,active: -97.9%
15,CCCS(=O)(=O)c1nc(S(=O)(=O)c2ccc(C)cc2)c(N2CCCC(C)C2)s1 (stereo not given),inconclusive: -57.3%
16,CCCCn1c(=N)n(CCOc2ccccc2OC)c2ccccc21,active: -70.5%
17,CC(C)c1ccc(CNc2n[nH]c(-c3ccco3)n2)cc1,inactive: 98.8%
18,Cc1cc2nc(CCN(C(=S)NCC(C)C)C3CCCC3)[nH]c2cc1C,active: -85.3%
19,CC(C)(Oc1ccc(Cl)cc1)C(=O)NC1CC1,inactive: 10.5%
20,Cc1ccc2cccc(S(=O)(=O)N3CCCc4ccccc43)c2n1,active: -65%
21,Cc1ccc(-c2nnn(CC(=O)N(CC(=O)NCc3ccccc3)c3cccc(C)c3C)n2)o1,inactive: 16.3%
22,O=C(NCc1cccnc1)c1cc(C2CCCCN2C(=O)c2ccc(Cl)cc2)on1 (stereo not given),inconclusive: -57.2%
23,C=C(C)[C@@H]1CC=C(CN2CCC(CCOC)(C(=O)OCC)CC2)CC1,inactive: 27.2%
24,CCn1ccc(C(=O)Nc2sc3c(c2C(=O)OC)CCC3)n1,inconclusive: -43.6%
25,Cn1c(N)c(-c2ccccc2)c2ccc([N+](=O)[O-])cc2c1=O,inconclusive: -42.8%
26,CC(=O)c1cccc(-c2ccnc3c2CC(C(=O)NCc2ccccc2)O3)c1 (stereo not given),active: -86.5%
27,N=c1c(C(=O)NC2CCCCC2)cc2c(=O)n3ccccc3nc2n1CC1CCCO1 (stereo not given),inactive: 2.74%

# Look-ups from the list.
# COc1ccc(N(C(=O)c2snc(C(N)=O)c2N)C(C(=O)NC2CCCC2)c2ccc(C)o2)c(OC)c1 (stereo not given) | activity change, negative = inhibition: inconclusive: -53.9%
# CCn1ccc(C(=O)Nc2sc3c(c2C(=O)OC)CCC3)n1 | activity change, negative = inhibition: inconclusive: -43.6%
